Measurements from paper PMC10269768.

Target: Ada3 (Beauveria bassiana), BD-Ada3 (Beauveria bassiana) (UniProt J5K3I2)
Experiment: two-hybrid; Y2HGold yeast co-transformed with pGADT7 (AD, prey) and pGBKT7 (BD, bait) plasmids; growth on SD-His-Leu-Trp medium with X-α-Gal

For “Ada2 (Beauveria bassiana), AD-Ada2 (from UniProt J4UTH7)”, the binding was “binds”.

No constants are given. Whether binding was seen depends on the method and setting. Binding calls can cover weak binding; strength is not graded here.
